These are yes or no findings as the source states them, for the method shown. In cells and extracts the contact can be indirect. Binding calls can cover weak binding; strength is not graded here.
Target: Flag-HNF1B (Hepatocyte Nuclear Factor 1β) (UniProt P35680)
Experiment: co-IP; Flag-HNF1B and HA-CDKN2A in HEK293T cells

The chains behind the UniProt entries cited, without tags or fusion partners. Where a name states a change or a piece, a line headed by the entry shows the natural chain unless it says otherwise.
UniProt P35680: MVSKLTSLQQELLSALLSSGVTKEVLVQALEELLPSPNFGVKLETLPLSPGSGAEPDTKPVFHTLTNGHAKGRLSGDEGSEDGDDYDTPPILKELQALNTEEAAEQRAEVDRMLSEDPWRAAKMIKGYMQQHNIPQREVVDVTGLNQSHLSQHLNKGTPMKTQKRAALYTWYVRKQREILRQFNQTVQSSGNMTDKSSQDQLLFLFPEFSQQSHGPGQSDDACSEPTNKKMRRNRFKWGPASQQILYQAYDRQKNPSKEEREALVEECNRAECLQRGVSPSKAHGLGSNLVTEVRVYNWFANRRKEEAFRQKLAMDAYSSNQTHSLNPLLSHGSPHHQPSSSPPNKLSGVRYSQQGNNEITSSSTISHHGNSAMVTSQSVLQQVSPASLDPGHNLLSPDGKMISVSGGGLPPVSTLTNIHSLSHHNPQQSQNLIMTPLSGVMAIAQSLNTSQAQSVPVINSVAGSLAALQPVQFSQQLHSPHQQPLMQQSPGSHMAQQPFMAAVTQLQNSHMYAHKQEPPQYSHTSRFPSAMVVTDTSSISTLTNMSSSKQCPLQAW
UniProt P42771: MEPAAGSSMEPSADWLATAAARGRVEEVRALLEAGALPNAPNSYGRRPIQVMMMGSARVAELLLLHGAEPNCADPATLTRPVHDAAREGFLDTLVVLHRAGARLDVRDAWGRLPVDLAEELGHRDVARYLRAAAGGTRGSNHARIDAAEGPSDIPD

For “HA-CDKN2A (P16, Cyclin-Dependent Kinase Inhibitor 2A) (from UniProt P42771)”, the binding was “binds”.
